{"source": "PubChem BioAssay AID504444", "about": "(National Center for Advancing Translational Sciences (NCATS), 2011)", "note": "In all, about 360,000 compounds went through this assay and about 7,500 (2.1%) were called active. This list was built around the results that the source calls inconclusive (neither active nor inactive); the mix of calls is not that of the screen. The call rests on the fitted dose curve; in most records, active means well fitted inhibition curve with a large enough effect; inconclusive means small, poorly fitted or top-dose-only effect, or effect the other way; inactive means flat fitted curve, though single readings scatter. Where the call is inconclusive, the potency comes from a doubtful curve fit. Potency means the concentration at half of the fitted maximal effect."}
{"test": "Nrf2 qHTS screen for inhibitors; further: nearly all actives have a fitted effect of over 60% in size", "conditions": "A549 ARE-Fluc reporter, luciferase luminescence, 18-24 h; series mostly up to 46 µM", "procedure,_shortened": "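Cells were seeded and rested 2 h, then exposed to compounds for 18-24 h. CellTiter-Fluor was read first as a viability measure. BugLite was added 15 min before the final luminescent read of ARE-luciferase activity in A549 cells.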"}
{"smiles": "CCn1c(=O)cc(OCC(=O)Nc2ccc(C)cn2)c2ccccc21", "Potency": "inconclusive: 32.6 µM [falling, single point]"}
{"smiles": "Cc1oc2ncn(CC(C)C)c(=O)c2c1C(=O)Nc1cccc(C(F)(F)F)c1", "Potency": "inconclusive: 18.4 µM [activator, single point]"}
{"smiles": "COc1ccc(OCC(=O)Nc2ccc(NC(=O)c3cccs3)cc2)cc1", "Potency": "inconclusive: 2.91 µM [activator, full curve]"}
{"smiles": "O=C(CSC1=NS(=O)(=O)c2ccccc21)Nc1ccccc1", "Potency": "inconclusive: 2.91 µM [falling, full curve, poor fit]"}
{"smiles": "CCOC(=O)c1sc(NC(=O)CN(CC(C)C)CC(C)C)c(C(=O)OCC)c1C", "Potency": "inactive"}
{"smiles": "Cc1ccc(S(=O)(=O)c2cc3c(=O)n4ccccc4nc3n(CCc3ccccc3)c2=N)cc1", "Potency": "inconclusive: 1.84 µM [activator, full curve]"}
{"smiles": "COc1ccc(C2=Nn3c(nnc3-c3ccc(OC)c(OC)c3)SC2)cc1", "Potency": "inactive"}
{"smiles": "CCN(CC(=O)NCc1cccs1)C(=O)c1ccc(S(=O)(=O)N(C)c2ccccc2)cc1", "Potency": "inactive"}
{"smiles": "CC(C)COc1cccc(C(=O)N(CC(=O)Nc2ccccc2C(F)(F)F)Cc2ccco2)c1", "Potency": "inconclusive: 23.1 µM [falling, partial curve, poor fit]"}
{"smiles": "CCOC(=O)c1c(NC(=O)CSc2nncs2)sc(C)c1-c1ccccc1", "Potency": "inconclusive: 29.1 µM [falling, single point]"}
{"smiles": "Nc1c(C(=O)NCCc2ccccc2)sc2nc(N3CCOCC3)c3c(c12)CCCC3", "Potency": "inconclusive: 18.4 µM [falling, partial curve, poor fit]"}
{"smiles": "CCOc1ccccc1NC(=O)C(=O)CC(=O)c1ccc(OC)cc1", "Potency": "inactive"}
{"smiles": "Cc1ccc2nc(-c3ccc(NC(=O)CSc4ccccc4)cc3)[nH]c2c1", "Potency": "inactive"}
{"smiles": "Cc1ccc(S(=O)(=O)N2CCN(c3cc4c(cc3[N+](=O)[O-])n(C)c(=O)n4C)CC2)cc1", "Potency": "inconclusive: 23.1 µM [falling, single point]"}
{"smiles": "Cc1cccc(-c2noc(CCc3ccccc3)n2)c1", "Potency": "inconclusive: 20.6 µM [activator, single point]"}
{"smiles": "COCCNC(=O)c1ccc2c(c1)N(Cc1ccc(C(F)(F)F)cc1)C(=O)c1ccccc1S2", "Potency": "inconclusive: 14.6 µM [falling, partial curve, poor fit]"}
{"smiles": "COc1cc2c(cc1OC)CN(c1nc(-c3cccnc3)nc3ccccc13)CC2", "Potency": "inconclusive: 20.6 µM [falling, single point]"}
{"smiles": "Cc1ccc2cccc(OCC(=O)Nc3cccc(S(=O)(=O)N4CCCC4)c3)c2n1", "Potency": "inconclusive: 25.9 µM [falling, single point]"}
{"smiles": "O=C1C2C3C=CC(C3)C2C(=O)N1/N=C/c1cn(Cc2ccc(F)cc2)c2ccccc12", "note": "(stereo not drawn)", "Potency": "inconclusive: 10.3 µM [falling, partial curve, poor fit]"}
{"smiles": "O=C(Nc1cccnc1Cl)c1cc(-c2ccc(O)cc2)on1", "Potency": "inconclusive: 1.16 µM [falling, partial curve, poor fit]"}
{"smiles": "O=C(O)/C=C/C(=O)Nc1ccc(Cl)c(C(=O)O)c1", "Potency": "inconclusive: 23.1 µM [activator, single point]"}
{"smiles": "CC(=O)Nc1cccc(-c2csc(Nc3cc(C)ccn3)n2)c1", "Potency": "inconclusive: 0.58 µM [activator, full curve]"}
{"smiles": "COc1ccccc1CCNC(=O)C(=O)c1cn(CC(=O)N2CCOCC2)c2ccccc12", "Potency": "inconclusive: 29.1 µM [activator, single point]"}
{"smiles": "CCCCCOC(=O)C1=C(C)NC(=O)NC1c1ccc([N+](=O)[O-])cc1", "note": "(stereo not drawn)", "Potency": "inconclusive: 20.6 µM [falling, partial curve]"}
{"smiles": "Nc1cc(Nc2ccc(Br)cc2)nc(N)n1", "Potency": "inconclusive: 29.1 µM [activator, single point]"}
{"smiles": "Cc1cccc(OCC(=O)OCC(=O)NCC2CCCO2)c1C", "note": "(stereo not drawn)", "Potency": "inactive"}
{"smiles": "Cc1cc(Nc2cccc(F)c2)nc(-c2ccccc2O)n1", "Potency": "inconclusive: 29.1 µM [falling, partial curve, poor fit]"}
{"smiles": "Cc1ccc(-c2nc(-c3cccnc3)sc2CC(=O)Nc2ccc3nc(C)sc3c2)cc1", "Potency": "inconclusive: 7.31 µM [falling, partial curve]"}
{"smiles": "Cc1ccc(C)c(OCC(=O)Nc2nonc2NC(=O)COc2cc(C)ccc2C)c1", "Potency": "inconclusive: 29.1 µM [falling, single point]"}
{"smiles": "CCCc1nnc(NC(=O)CSc2nc3ccccc3[nH]2)s1", "Potency": "inconclusive: 29.1 µM [falling, single point]"}
{"smiles": "Cc1ccc(-c2csc(=Nc3cccnc3)n2CCCN2CCCC2=O)cc1C", "Potency": "inconclusive: 18.4 µM [falling, partial curve, poor fit]"}
{"smiles": "CCC1CN(C(=O)N2CCC(C(=O)N3CCN(c4ccc(F)cc4)CC3)CC2)c2ccccc2O1", "note": "(stereo not drawn)", "Potency": "inconclusive: 16.4 µM [falling, single point]"}
{"smiles": "CCOc1ccc(-n2cc(C(=O)c3cc(Cl)ccc3O)cc(C#N)c2=O)cc1", "Potency": "inactive"}
{"smiles": "CCC(Oc1ccc(C)cc1)C(=O)Nc1ccc(S(=O)(=O)Nc2nccs2)cc1", "note": "(stereo not drawn)", "Potency": "inconclusive: 9.2 µM [falling, partial curve, poor fit]"}
{"smiles": "CN(Cc1ccccc1)S(=O)(=O)c1ccc(Cl)c(C(=O)N2CCC(C(N)=O)CC2)c1", "Potency": "inconclusive: 20.6 µM [falling, single point]"}
{"smiles": "Cc1ccc(NC(=O)C2CCN(C(=O)c3cnn(-c4ccccc4)c3-n3cccc3)CC2)cc1", "Potency": "inconclusive: 29.1 µM [falling, single point]"}
{"smiles": "CCOC(=O)N1CCc2c(sc3c2c(=O)n(-c2ccc(CC)cc2)c(=O)n3CC(=O)c2ccccc2)C1", "Potency": "inconclusive: 8.2 µM [falling, single point]"}
{"smiles": "CC(C)(C)Nc1nc(NN)nc(NC(C)(C)C)n1", "Potency": "inconclusive: 29.1 µM [falling, single point]"}
{"smiles": "O=C(CNC(=O)c1ccc(C(F)(F)F)cc1)OC(C(=O)Nc1cc(C(F)(F)F)ccc1Cl)c1ccccc1", "note": "(stereo not drawn)", "Potency": "inactive"}
{"smiles": "Cc1ccc(NCN2C(=O)C(=O)c3ccccc32)nc1", "Potency": "inactive"}
{"smiles": "Cc1ccc(C2CC(=O)C(C=NCCN3CCN(C(=S)Nc4ccc(F)cc4)CC3)=C(O)C2)cc1", "note": "(stereo not drawn)", "Potency": "inconclusive: 16.4 µM [falling, single point]"}
{"smiles": "COc1ccc2[nH]c3c(c2c1)CCN1C(=O)C(CC(=O)NCC24CC5CC(CC(C5)C2)C4)C[C@H](C(=O)N2CCCCC2)[C@@]31C", "note": "(stereo partly drawn)", "Potency": "inconclusive: 29.1 µM [falling, single point]"}
{"smiles": "Cc1ccc(NC(=S)NNS(=O)(=O)c2ccc3ccccc3c2)cc1Cl", "Potency": "inconclusive: 32.6 µM [activator, partial curve, poor fit]"}
{"smiles": "CC[C@@H]1CC=C[C@H]2[C@H]1C(=O)N(Cc1ccccc1)[C@H]2c1ccc(C(F)(F)F)cc1", "Potency": "inconclusive: 20.6 µM [falling, single point]"}
{"smiles": "CC(=O)n1nc(-c2ccc(C)cc2)nc1NCc1ccc(F)cc1", "Potency": "inactive"}
{"smiles": "CCSc1ncc(/C=N/Nc2ccc(Cl)cc2)n1C", "Potency": "inconclusive: 20.6 µM [activator, partial curve, poor fit]"}
{"smiles": "CC(=O)NCC(=O)N1CCCC(C(=O)c2ccc3c4c(cccc24)CC3)C1", "note": "(stereo not drawn)", "Potency": "inconclusive: 7.31 µM [falling, partial curve, poor fit]"}
{"smiles": "COC(=O)c1cc(C(=O)c2cc(Br)ccc2O)coc1=N", "Potency": "inconclusive: 20.6 µM [activator, single point]"}
{"smiles": "Brc1ccc(-n2cnc(-c3ccccc3)c2)cc1", "Potency": "inconclusive: 5.8 µM [activator, partial curve]"}
{"smiles": "Cc1ccc(C(=O)O/N=C(\\N)Cc2cccs2)c(Cl)c1", "Potency": "inconclusive: 5.8 µM [activator, partial curve]"}
{"smiles": "CCOc1ncccc1C(=O)Nc1ncc(C)s1", "Potency": "inconclusive: 5.17 µM [activator, full curve]"}
{"smiles": "CCOC(=O)c1sc(NC(=O)c2ccccc2OCC)nc1C", "Potency": "inconclusive: 32.6 µM [activator, single point]"}
{"smiles": "CCOC(=O)Cc1csc(NS(C)(=O)=O)n1", "Potency": "inconclusive: 0.0082 µM [falling, full curve, poor fit]"}
{"smiles": "Cc1ccc(N2CCCn3c2cc(C)c(C#N)c3=O)cc1C", "Potency": "inconclusive: 16.4 µM [falling, partial curve]"}
{"smiles": "CC(C)c1nnc(NC(=O)CCC(=O)NCc2cccs2)s1", "Potency": "inconclusive: 10.3 µM [activator, partial curve, poor fit]"}
{"smiles": "CCOc1ccc(NC(=O)C2CCN(S(=O)(=O)c3ccc4c(c3)oc(=O)n4C)CC2)cc1", "Potency": "inactive"}
{"smiles": "CCCCNC(=O)c1onc(CSc2ccc(Cl)cc2)c1C(=O)NCCCC", "Potency": "inconclusive: 6.51 µM [falling, single point]"}
{"smiles": "COc1cc(C(=O)NCC(c2cccs2)N2CCc3ccccc32)cc(OC)c1OC", "note": "(stereo not drawn)", "Potency": "inconclusive: 25.9 µM [falling, single point]"}
{"smiles": "COc1cc2c(cc1OC)-c1cc(Nc3ccc(C)cc3)nc(=O)n1CC2", "Potency": "inconclusive: 11.6 µM [falling, partial curve, poor fit]"}
{"smiles": "O=C(NNC(=S)NC(=O)c1cccs1)c1ccc(NC(=O)c2ccccc2)cc1", "Potency": "inconclusive: 20.6 µM [falling, partial curve]"}
{"smiles": "Cc1ccc(CNc2nc(C)nc3sc4c(c23)CCC4)cc1", "Potency": "inconclusive: 25.9 µM [falling, partial curve, poor fit]"}
{"smiles": "CNc1snc(C)c1C(=O)OCC(=O)c1cc(F)ccc1OC", "Potency": "active: 11.6 µM"}
{"smiles": "COc1ccc(/C=N/NC(=O)c2ccn[nH]2)cc1COc1ccc(F)cc1", "Potency": "inconclusive: 8.2 µM [falling, partial curve, poor fit]"}
